PubChem BioAssay AID1259254 | NCATS, 2017

Aim: 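Genome-wide screen for genes that prevent DNA re-replication in cancer cells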 (primary screen)
System: human HCT116 colorectal cancer cells
Reagents: single siRNA against human genes
Time to read-out: 3 days
Read-out: 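Imaged Hoechst DNA stain sorts each cell into a cycle phase by DNA amount; per plate, G2 fraction set to 0% for non-targeting and 100% for GMNN siRNA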
Scale: G2 robust z-score and G2 cells, % of GMNN control: higher = more G2 cells, more excess DNA replication
Rule for the call: 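An siRNA counts as active if its G2 robust z-score lies at least 5 MADs above the screen median; here such calls match roughly 38% of GMNN control or more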
Shown is an unselected part of about 59,000 deposited reagents. About 1,550 of them (2.6%) count as active. 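G2 share is only a proxy for re-replication; each gene was hit by three separate siRNAs, and active genes were retested.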 Entries without a mark were called inactive. Reagents against one gene are numbered here. Further read-outs or replicates are left out here. Not stated in the record: the amount of reagent.

TAS2R42 #1 scored G2 robust z-score 2.37; G2 cells, % of GMNN control 19.6. With knock-down of TAS2R42 #2, the screen gave G2 robust z-score 0.38; G2 cells, % of GMNN control 5.64. Silencing of TAS2R42 #3 came out at: G2 robust z-score -0.139; G2 cells, % of GMNN control 1.99. After knock-down of NCBP3 #1 the results were G2 robust z-score 1.54; G2 cells, % of GMNN control 13.8. With knock-down of NCBP3 #2, the record shows G2 robust z-score -0.824; G2 cells, % of GMNN control -2.83. NCBP3 #3 showed G2 robust z-score -0.32; G2 cells, % of GMNN control 0.713.

After knock-down of TRIM41 #1, the screen gave G2 robust z-score -0.0425; G2 cells, % of GMNN control 2.67. TRIM41 #2 scored G2 robust z-score 1.17; G2 cells, % of GMNN control 11.2. TRIM41 #3 scored G2 robust z-score 0.0155; G2 cells, % of GMNN control 3.08. REEP2 #1 showed G2 robust z-score -0.434; G2 cells, % of GMNN control -0.089. With knock-down of REEP2 #2 the results were G2 robust z-score -0.658; G2 cells, % of GMNN control -1.66. REEP2 #3 gave G2 robust z-score -0.721; G2 cells, % of GMNN control -2.1.

After knock-down of SCN3A #1 the results were G2 robust z-score 2.02; G2 cells, % of GMNN control 17.1. Knock-down of SCN3A #2 came out at: G2 robust z-score 0.165; G2 cells, % of GMNN control 4.13. After knock-down of SCN3A #3, the record shows G2 robust z-score -1.33; G2 cells, % of GMNN control -6.4. With knock-down of ZNF114 #1 the results were G2 robust z-score 0.295; G2 cells, % of GMNN control 5.04. After knock-down of ZNF114 #2 the results were G2 robust z-score -0.84; G2 cells, % of GMNN control -2.94. Silencing of ZNF114 #3 came out at: G2 robust z-score -0.875; G2 cells, % of GMNN control -3.19.

Against LMO1 #1, the entry reads G2 robust z-score 0.0355; G2 cells, % of GMNN control 3.22. Knock-down of LMO1 #2 gave: G2 robust z-score 0.511; G2 cells, % of GMNN control 6.56. With knock-down of LMO1 #3, the record shows G2 robust z-score -0.777; G2 cells, % of GMNN control -2.5. Depletion of OR7E85BP #1 came out at: G2 robust z-score -0.456; G2 cells, % of GMNN control -0.238. Against OR7E85BP #2 the deposit lists G2 robust z-score 1.42; G2 cells, % of GMNN control 13. For OR7E85BP #3, the values are G2 robust z-score 1.63; G2 cells, % of GMNN control 14.4.

With knock-down of GUSBP18 #1, the screen gave G2 robust z-score 0.0221; G2 cells, % of GMNN control 3.12. Knock-down of GUSBP18 #2 came out at: G2 robust z-score -0.645; G2 cells, % of GMNN control -1.57. GUSBP18 #3 showed G2 robust z-score -0.0779; G2 cells, % of GMNN control 2.42. Silencing of KLHL3 #1 resulted in: G2 robust z-score -0.00369; G2 cells, % of GMNN control 2.94. Knock-down of KLHL3 #2 resulted in: G2 robust z-score -0.185; G2 cells, % of GMNN control 1.67. Against KLHL3 #3 the deposit lists G2 robust z-score -0.23; G2 cells, % of GMNN control 1.35.

3 successive reagents already listed, for reference:
OR7E85BP #2: G2 robust z-score = 1.42; G2 cells, % of GMNN control = 13
OR7E85BP #3: G2 robust z-score = 1.63; G2 cells, % of GMNN control = 14.4
GUSBP18 #1: G2 robust z-score = 0.0221; G2 cells, % of GMNN control = 3.12
